# Laboratory results: PubChem BioAssay AID504774 (Drosophila RNAi Screening Center, 2011)
# Screen: 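Genes required for cells to withstand methyl methanesulphonate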 (primary screen)
# Cells: Drosophila Kc167 cells
# Reagents: long dsRNA against Drosophila genes, about 0.25 µg dsRNA per well
# Timing: about 6 days: 3 days knock-down, then 3 days with or without MMS
# Treatment: methyl methanesulphonate 0.004% (w/v) for 3 days after knock-down
# Measurement: 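ATP-dependent luminescence as a measure of live cells in MMS-exposed wells, quantile normalised within each plate, with replicate values also given as a mean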
# Reading the numbers: mean viability with MMS and viability with MMS: higher = more surviving cells after MMS
# The deposit covers about 23,000 reagents; this is an unselected part of those that have a named target and a result. 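Values are quantile-normalised luminescence on an arbitrary scale; higher means more cells surviving MMS.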 Reagents against one gene are numbered here. A plus sign joins genes that one reagent is predicted to hit.
Gene,dsRNA no.,mean viability with MMS,"viability with MMS, replicate 1","viability with MMS, replicate 2"
CG14569,1,3.50e6,4.16e6,3.74e6
Desat1,1,3.33e6,3.75e6,3.89e6
cher,1,3.73e6,4.20e6,4.18e6
Dnaaf4,1,3.56e6,3.99e6,4.11e6
Cpr65Ec,1,3.56e6,3.96e6,4.13e6
Dredd,1,3.49e6,3.99e6,3.93e6
Cad86C,1,3.66e6,4.09e6,4.12e6
Cad86C,2,3.44e6,3.93e6,3.91e6
GV1,1,3.76e6,4.22e6,4.17e6
CG32544,1,3.57e6,4.15e6,3.94e6
Oatp58Dc,1,3.63e6,4.24e6,3.90e6
Sox21b,1,3.78e6,4.09e6,4.37e6
Sox21b,2,3.18e6,3.62e6,3.65e6
Sox21b,3,2.66e6,3.66e6,3.63e6
Sox21b,4,3.43e6,3.87e6,3.93e6
Tao,1,3.55e6,4.03e6,4.09e6
Tao,2,3.60e6,4.07e6,4.06e6
Tao,3,3.55e6,4.00e6,4.02e6
CG32212 + hpRNA:CR33940,1,3.65e6,4.17e6,4.09e6
alc,1,3.58e6,4.01e6,4.08e6
alc,2,3.56e6,3.93e6,4.16e6
alc,3,3.90e6,4.44e6,4.37e6
ImpE2,1,3.52e6,3.99e6,4.00e6
wry,1,3.36e6,3.78e6,3.77e6
wry,2,3.26e6,3.66e6,3.67e6
wry,3,3.59e6,4.02e6,4.07e6
CNT2,1,3.35e6,3.65e6,3.91e6
CG12237,1,3.61e6,3.90e6,4.06e6
CG12237,2,3.56e6,4.04e6,4.01e6
CG14687,1,3.54e6,3.97e6,4.05e6
CG2685,1,3.04e6,3.69e6,3.66e6
Rsf1,1,3.58e6,4.43e6,3.70e6
Rsf1,2,3.51e6,4.07e6,3.90e6
CG14564,1,3.79e6,4.20e6,4.25e6
CG14564,2,3.44e6,3.68e6,4.19e6
CheB42c,1,3.65e6,4.18e6,4.02e6
CG12991,1,3.58e6,4.11e6,3.99e6
Obp22a,1,3.48e6,3.94e6,3.99e6
ich,1,3.39e6,3.78e6,3.92e6
ich,2,3.65e6,4.21e6,4.06e6
poe,1,3.52e6,4.01e6,3.97e6
l(3)62Be (retired record),1,3.55e6,3.95e6,4.09e6
APC10,1,3.47e6,3.93e6,3.91e6
CrebB,1,3.50e6,3.94e6,4.01e6
CG44085,1,2.73e6,3.48e6,3.48e6
CG44085,2,3.51e6,4.10e6,3.90e6
Pxd,1,3.45e6,3.90e6,3.92e6
dlg1,1,3.37e6,3.83e6,3.82e6
dlg1,2,3.55e6,4.06e6,4.00e6
dlg1,3,3.58e6,4.03e6,4.06e6
dlg1,4,3.49e6,3.93e6,3.86e6
fws,1,3.39e6,3.93e6,3.70e6
CG6972,1,3.57e6,4.14e6,3.95e6
Hem,1,3.53e6,4.02e6,3.96e6
Cpr78Cb,1,3.53e6,4.02e6,3.97e6
Gar1,1,3.36e6,3.82e6,3.73e6
CG9815,1,3.67e6,4.15e6,4.17e6
CG6638,1,3.54e6,3.93e6,4.11e6
LManI,1,3.51e6,4.05e6,3.91e6
pkaap,1,3.50e6,4.01e6,3.93e6
CR12798,1,3.72e6,4.15e6,4.20e6
CG14982,1,3.08e6,3.58e6,3.63e6
CG14982,2,3.66e6,4.23e6,4.08e6
Cpr72Eb,1,3.45e6,4.00e6,3.80e6
Pgk,1,3.36e6,3.72e6,3.81e6
Pgk,2,2.46e6,2.50e6,2.91e6
CG32079,1,3.60e6,4.05e6,4.07e6
PolrMT,1,3.62e6,4.18e6,4.05e6
